# Data reported in the supplement of paper PMC8728848.
# The list shows a part of the results.
# How the values were obtained:
# Experiment in all cases: glycan array binding signal (z-score within array); higher = stronger binding
# Conditions in all cases: glycan notation: IUPAC condensed, linker removed
# Fuc(a1-3)GlcNAc = target: Fuc(a1-3)GlcNAc
# Summary of the method: (§1)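 Columns mapping to the same glycan were averaged after glycan names were converted to IUPAC-condensed notation. The data come from 3228 arrays in the Consortium for Functional Glycomics database, limited to those with an available protein sequence. Binding is reported as a within-array Z-score averaged across arrays of one protein sequence and across linkers.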
# [1] = target: Fuc(a1-3)[Gal(b1-4)]Glc6S
# Summary of the method: as §1
# [2] = target: Fuc(a1-3)[Gal(b1-4)]GlcNAc
# Summary of the method: as §1
# [3] = target: Fuc(a1-3)[Gal(b1-4)]GlcNAc(b1-2)Man
# Summary of the method: as §1
# [4] = target: Fuc(a1-3)[Gal(b1-4)]GlcNAc(b1-2)Man(a1-3)[Fuc(a1-3)[Gal(b1-4)]GlcNAc(b1-2)Man(a1-6)]Man(b1-4)GlcNAc(b1-4)GlcNAc
# Summary of the method: as §1
# [5] = target: Fuc(a1-3)[Gal(b1-4)]GlcNAc(b1-2)Man(a1-3)[Fuc(a1-3)[Gal(b1-4)]GlcNAc(b1-2)Man(a1-6)]Man(b1-4)GlcNAc(b1-4)[Fuc(a1-6)]GlcNAc
# Summary of the method: as §1
# [6] = target: Fuc(a1-3)[Gal(b1-4)]GlcNAc(b1-3)Gal(b1-3)[Fuc(a1-4)]GlcNAc
# Summary of the method: as §1
# [7] = target: Fuc(a1-3)[Gal(b1-4)]GlcNAc(b1-3)Gal(b1-4)[Fuc(a1-3)]GlcNAc
# Summary of the method: as §1
# [8] = target: Fuc(a1-3)[Gal(b1-4)]GlcNAc(b1-3)Gal(b1-4)[Fuc(a1-3)]GlcNAc(b1-3)Gal(b1-4)[Fuc(a1-3)]GlcNAc
# Summary of the method: as §1
# [9] = target: Fuc(a1-3)[Gal(b1-4)]GlcNAc(b1-3)GalNAc
# Summary of the method: as §1
# [10] = target: Fuc(a1-3)[Gal(b1-4)]GlcNAc(b1-6)GalNAc
# Summary of the method: as §1
# [11] = target: Fuc(a1-3)[Gal(b1-4)]GlcNAc(b1-6)[Gal(b1-3)GlcNAc(b1-3)]Gal(b1-4)Glc
# Summary of the method: as §1
# [12] = target: Fuc(a1-3)[Gal(b1-4)]GlcNAc6S
# Summary of the method: as §1
# [13] = target: Fuc(a1-3)[Gal3S(b1-4)]Glc
# Summary of the method: as §1
# [14] = target: Fuc(a1-3)[Gal3S(b1-4)]GlcNAc
# Summary of the method: as §1
# [15] = target: Fuc(a1-3)[Gal3S(b1-4)]GlcNAc6S
# Summary of the method: as §1
# [16] = target: Fuc(a1-3)[GalNAc(b1-4)]GlcNAc
# Summary of the method: as §1
# [17] = target: Fuc(a1-3)[GalNAc(b1-4)]GlcNAc6S
# Summary of the method: as §1
# Fuc(a1-4)GlcNAc = target: Fuc(a1-4)GlcNAc
# Summary of the method: as §1
# Fuc(b1-3)GlcNAc = target: Fuc(b1-3)GlcNAc
# Summary of the method: as §1
# Gal(a1-2)Gal = target: Gal(a1-2)Gal
# Summary of the method: as §1
# Gal(a1-3)Gal = target: Gal(a1-3)Gal
# Summary of the method: as §1
# Gal(a1-3)Gal(b1-3)GlcNAc = target: Gal(a1-3)Gal(b1-3)GlcNAc
# Summary of the method: as §1
# [18] = target: Gal(a1-3)Gal(b1-3)GlcNAc(b1-2)Man
# Summary of the method: as §1
# [19] = target: Gal(a1-3)Gal(b1-3)GlcNAc(b1-2)Man(a1-3)[Gal(a1-3)Gal(b1-3)GlcNAc(b1-2)Man(a1-6)]Man(b1-4)GlcNAc(b1-4)GlcNAc
# Summary of the method: as §1
# [20] = target: Gal(a1-3)Gal(b1-3)GlcNAc(b1-3)GalNAc
# Summary of the method: as §1
# [21] = target: Gal(a1-3)Gal(b1-3)GlcNAc(b1-6)GalNAc
# Summary of the method: as §1
# [22] = target: Gal(a1-3)Gal(b1-3)[Fuc(a1-4)]GlcNAc(b1-2)Man(a1-3)[Gal(a1-3)Gal(b1-3)[Fuc(a1-4)]GlcNAc(b1-2)Man(a1-6)]Man(b1-4)GlcNAc(b1-4)GlcNAc
# Summary of the method: as §1
# Gal(a1-3)Gal(b1-4)Glc = target: Gal(a1-3)Gal(b1-4)Glc
# Summary of the method: as §1
# Gal(a1-3)Gal(b1-4)GlcNAc = target: Gal(a1-3)Gal(b1-4)GlcNAc
# Summary of the method: as §1
# [23] = target: Gal(a1-3)Gal(b1-4)GlcNAc(b1-2)Man
# Summary of the method: as §1
# [24] = target: Gal(a1-3)Gal(b1-4)GlcNAc(b1-2)Man(a1-3)[Gal(a1-3)Gal(b1-4)GlcNAc(b1-2)Man(a1-6)]Man(b1-4)GlcNAc(b1-4)GlcNAc
# Summary of the method: as §1
# [25] = target: Gal(a1-3)Gal(b1-4)GlcNAc(b1-3)GalNAc
# Summary of the method: as §1
# [26] = target: Gal(a1-3)Gal(b1-4)GlcNAc(b1-6)GalNAc
# Summary of the method: as §1
# [27] = target: Gal(a1-3)Gal(b1-4)[Fuc(a1-3)]GlcNAc
# Summary of the method: as §1
# [28] = target: Gal(a1-3)Gal(b1-4)[Fuc(a1-3)]GlcNAc(b1-2)Man(a1-3)[Gal(a1-3)Gal(b1-4)[Fuc(a1-3)]GlcNAc(b1-2)Man(a1-6)]Man(b1-4)GlcNAc(b1-4)GlcNAc
# Summary of the method: as §1
# Gal(a1-3)GalNAc = target: Gal(a1-3)GalNAc
# Summary of the method: as §1
# [29] = target: Gal(a1-3)[Gal(a1-4)]Gal(b1-4)GlcNAc
# Summary of the method: as §1
# [30] = target: Gal(a1-4)Gal(b1-3)GlcNAc(b1-2)Man(a1-3)[Gal(a1-4)Gal(b1-3)GlcNAc(b1-2)Man(a1-6)]Man(b1-4)GlcNAc(b1-4)GlcNAc
# Summary of the method: as §1
# Gal(a1-4)Gal(b1-4)Glc = target: Gal(a1-4)Gal(b1-4)Glc
# Summary of the method: as §1
# Gal(a1-4)Gal(b1-4)GlcNAc = target: Gal(a1-4)Gal(b1-4)GlcNAc
# Summary of the method: as §1
# [31] = target: Gal(a1-4)Gal(b1-4)GlcNAc(b1-2)Man(a1-3)[Gal(a1-4)Gal(b1-4)GlcNAc(b1-2)Man(a1-6)]Man(b1-4)GlcNAc(b1-4)GlcNAc
# Summary of the method: as §1
# [32] = target: Gal(a1-4)Gal(b1-4)GlcNAc(b1-3)Gal(b1-4)Glc
# Summary of the method: as §1
# Gal(a1-4)GlcNAc = target: Gal(a1-4)GlcNAc
# Summary of the method: as §1
# Gal(a1-6)Glc = target: Gal(a1-6)Glc
# Summary of the method: as §1
binder,measurement,setting,value
PhypaEULS3 (Physcomitrella patens) (protein) MLPVRLHCKADPNFNLAAVPGQGPVMVPFSPNDDFQVWYKDVTMSTRVKDETGSSAFSLINKATGQALRHAPEDLAQCLLADYDSNALDQTVLWTMSEDMGQGYCCIRLASQITRNLDVFRGDKKSGGVKEGSPVITFAWKKQDNQIWKMITAILEQKLISEEDLNSAVDHHHHHH,glycan array binding signal (z-score),Fuc(a1-3)GlcNAc,-0.803
same,glycan array binding signal (z-score),[1],-1.15
same,glycan array binding signal (z-score),[2],-0.792
same,glycan array binding signal (z-score),[3],1.34
same,glycan array binding signal (z-score),[4],-1.36
same,glycan array binding signal (z-score),[5],-0.138
same,glycan array binding signal (z-score),[6],0.906
same,glycan array binding signal (z-score),[7],1.15
same,glycan array binding signal (z-score),[8],-0.21
same,glycan array binding signal (z-score),[9],0.727
same,glycan array binding signal (z-score),[10],-0.754
same,glycan array binding signal (z-score),[11],2.22
same,glycan array binding signal (z-score),[12],-0.239
same,glycan array binding signal (z-score),[13],0.385
same,glycan array binding signal (z-score),[14],0.652
same,glycan array binding signal (z-score),[15],1.26
same,glycan array binding signal (z-score),[16],-0.945
same,glycan array binding signal (z-score),[17],1.27
same,glycan array binding signal (z-score),Fuc(a1-4)GlcNAc,-0.148
same,glycan array binding signal (z-score),Fuc(b1-3)GlcNAc,0.35
same,glycan array binding signal (z-score),Gal(a1-2)Gal,-0.381
same,glycan array binding signal (z-score),Gal(a1-3)Gal,0.763
same,glycan array binding signal (z-score),Gal(a1-3)Gal(b1-3)GlcNAc,1.01
same,glycan array binding signal (z-score),[18],0.318
same,glycan array binding signal (z-score),[19],0.405
same,glycan array binding signal (z-score),[20],-1.36
same,glycan array binding signal (z-score),[21],0.611
same,glycan array binding signal (z-score),[22],-1.13
same,glycan array binding signal (z-score),Gal(a1-3)Gal(b1-4)Glc,0.358
same,glycan array binding signal (z-score),Gal(a1-3)Gal(b1-4)GlcNAc,0.743
same,glycan array binding signal (z-score),[23],-0.475
same,glycan array binding signal (z-score),[24],-0.01
same,glycan array binding signal (z-score),[25],3.21
same,glycan array binding signal (z-score),[26],0.697
same,glycan array binding signal (z-score),[27],-0.773
same,glycan array binding signal (z-score),[28],0.694
same,glycan array binding signal (z-score),Gal(a1-3)GalNAc,-0.376
same,glycan array binding signal (z-score),[29],-0.823
same,glycan array binding signal (z-score),[30],0.42
same,glycan array binding signal (z-score),Gal(a1-4)Gal(b1-4)Glc,-1.92
same,glycan array binding signal (z-score),Gal(a1-4)Gal(b1-4)GlcNAc,-1.79
same,glycan array binding signal (z-score),[31],0.241
same,glycan array binding signal (z-score),[32],0.15
same,glycan array binding signal (z-score),Gal(a1-4)GlcNAc,-0.25
same,glycan array binding signal (z-score),Gal(a1-6)Glc,-0.442

# Quoted from the results shown (3 entries):
binder,measurement,setting,value
PhypaEULS3 (Physcomitrella patens) (protein) MLPVRLHCKADPNFNLAAVPGQGPVMVPFSPNDDFQVWYKDVTMSTRVKDETGSSAFSLINKATGQALRHAPEDLAQCLLADYDSNALDQTVLWTMSEDMGQGYCCIRLASQITRNLDVFRGDKKSGGVKEGSPVITFAWKKQDNQIWKMITAILEQKLISEEDLNSAVDHHHHHH,glycan array binding signal (z-score),Fuc(a1-3)GlcNAc,-0.803
same,glycan array binding signal (z-score),[1],-1.15
same,glycan array binding signal (z-score),[2],-0.792
